The test system of the data set is HeLa cell spheres. The data set is described as follows: Cell suspension test of HeLa cell spheres. Also noted: species or system human. The settings on record: 37° C., 1 hr.

Drawing on US20170175077A1, “CULTURE MEDIUM COMPOSITION AND METHOD OF CULTURING CELL OR TISSUE USING THEREOF” (Nissan Chemical Industries, Ltd., priority 2012, published 2017), this text covers HeLa cell suspension/sedimentation for one substance.

Consider collagen, for which the HeLa cell suspension/sedimentation entry is “sedimentation” (0.01% (w/v) in DMEM/F-12 medium), “suspension” (0.05% (w/v) in DMEM/F-12 medium), “suspension” (0.1% (w/v) in DMEM/F-12 medium) and “suspension” (0.2% (w/v) in DMEM/F-12 medium).
